Source: PubChem BioAssay AID1671190 (National Center for Advancing Translational Sciences (NCATS), 2021)
Screen size: about 580,000 compounds; about 6,100 (1.1%) were called active. Inconclusive results, whose numbers are uncertain, are shown with a selection of clear calls. Calls come from the whole dose curve; as a rule, active = well fitted inhibition curve with a large enough effect; inconclusive = small, poorly fitted or top-dose-only effect, or another doubt; inactive = no such curve, though single readings can be large or run the other way. Where the call is inconclusive, the potency comes from a doubtful curve fit.

By UniProt entry, the sequences of proteins in these tests, tags left out.
UniProt P18054, whole entry, looked up: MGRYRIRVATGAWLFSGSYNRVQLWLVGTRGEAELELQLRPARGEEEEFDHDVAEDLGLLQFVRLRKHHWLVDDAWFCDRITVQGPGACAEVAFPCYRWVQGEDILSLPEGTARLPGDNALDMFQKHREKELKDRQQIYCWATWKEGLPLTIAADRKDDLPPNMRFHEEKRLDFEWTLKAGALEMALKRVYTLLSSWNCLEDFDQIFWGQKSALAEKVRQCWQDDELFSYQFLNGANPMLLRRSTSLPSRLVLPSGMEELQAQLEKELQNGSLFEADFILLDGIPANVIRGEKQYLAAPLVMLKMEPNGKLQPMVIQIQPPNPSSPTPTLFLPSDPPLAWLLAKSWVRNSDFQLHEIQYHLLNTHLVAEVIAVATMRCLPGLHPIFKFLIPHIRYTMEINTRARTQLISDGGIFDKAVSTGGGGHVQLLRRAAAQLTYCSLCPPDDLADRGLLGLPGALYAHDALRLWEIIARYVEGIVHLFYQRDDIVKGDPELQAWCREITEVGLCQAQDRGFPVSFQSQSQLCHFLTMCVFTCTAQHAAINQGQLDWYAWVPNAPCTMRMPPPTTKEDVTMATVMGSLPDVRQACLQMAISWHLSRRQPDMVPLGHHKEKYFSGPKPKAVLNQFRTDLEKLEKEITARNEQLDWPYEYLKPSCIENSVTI

molecular target: Polyunsaturated fatty acid lipoxygenase ALOX12 (Homo sapiens) (UniProt P18054); assay: Primary qHTS assay for inhibitors of human arachidonate 12S-lipoxygenase (ALOX12): Round 2; settings: purified 12hLO, xylenol orange hydroperoxide absorbance; activity change, negative = inhibition: at 108 µM (top of the series) unless noted
Procedure, shortened: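 Purified human 12hLO at 150 nM in 25 mM Hepes, 0.01% Triton X-100, pH 7.0, preincubated 15 min at room temperature with compound. Reaction started with 40 uM arachidonic acid, 30 min at room temperature. Hydroperoxide measured by Fe-xylenol orange, 573/405 nm absorbance ratio.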
% is set by controls: 0 for no effect and ±100 for the full control effect; potency is the fitted concentration of half-maximal effect.

SMILES | Potency | activity change, negative = inhibition
Cc1ccnc(NC(=O)CCCOc2cc(=O)n(C)c3ccccc23)c1 | inactive | 
CC(=O)c1cc2c(cc1NC(=O)CSc1nnc(C3CC3)o1)OCO2 | inconclusive: 50.1 µM [inhibitor, single point] | 
CC(C)(C)c1ccc(C(=O)Nc2cc(C(F)(F)F)ccc2F)cc1 |  | inactive: 5.92%
O=C(C1CCC1)N1c2ccccc2CC1c1noc(C2CCOCC2)n1 (stereo not given) |  | inactive: 43.1%
Cc1ccc2[nH]c(=O)c(CN(CC3CCCO3)C(=S)NCc3ccco3)cc2c1 (stereo not given) |  | inactive: 2.75%
COc1ccc(Cl)cc1N(CC(=O)Nc1ccccc1SC)S(C)(=O)=O | inconclusive: 89.1 µM [inhibitor, single point] | 
CCc1nc2cc(N3CCCC(C(=O)O)C3)cnc2nc1CC (stereo not given) | inconclusive: 44.7 µM [inhibitor, single point] | 
COc1cc(NC(=O)CSc2nc(-c3ccc(C(C)C)cc3)no2)cc(OC)c1 |  | inactive: -28.1%
Cc1ccc(-c2nc(SCC(=O)N3CCCc4ccccc43)n3[nH]c(=O)cc3n2)cc1 | inconclusive: 56.2 µM [inhibitor, partial curve, poor fit] | 
O=C(OCC(=O)N(Cc1ccccc1)C1CCS(=O)(=O)C1)c1n[nH]c2ccccc12 (stereo not given) |  | inactive: -60.2%
COc1ccc(N2C(=O)CC(NC3CC3)C2=O)cc1 (stereo not given) | inconclusive: 35.5 µM [inhibitor, partial curve] | 
NS(=O)(=O)OCC1CCCCC1 | inconclusive: 44.7 µM [inhibitor, partial curve, poor fit] | 
COc1ccc2c(/C=C/c3cc[n+](C)cc3)c[nH]c2c1 | inconclusive: 3.55 µM [inhibitor, partial curve, poor fit] | 
CCN1CCN(Cc2c(O)ccc3c(=O)c(Oc4ccccc4C(C)C)c(C(F)(F)F)oc23)CC1 | inconclusive: 1.12 µM [inhibitor, full curve, poor fit] | 
O=C(NCCN1CCOCC1)c1sc2cc(Cl)ccc2c1Cl |  | inactive: -21.8%
Cc1ccc(S(=O)(=O)Nc2ccccc2CNc2ccc(Br)cn2)cc1 |  | inactive: -14.4%
Cc1ccc(-c2cc(C(=O)N3CCN(c4ccc(O)cc4)CC3)c3ccccc3n2)cc1 | inconclusive: 5.01 µM [inhibitor, partial curve, poor fit] | 
Cn1cc(CN2CCC(C3CCN(S(C)(=O)=O)CC3)C2)c2ccccc21 (stereo not given) | inconclusive: 4.47 µM [inhibitor, full curve] | 
COc1ccccc1/C=C\C=N\n1c(C2CCCCC2)n[nH]c1=S | inconclusive: 31.6 µM [inhibitor, partial curve, poor fit] | 
Cc1ccc(N=Nc2ccc(N)cc2C)c(S(N)(=O)=O)c1 | inconclusive: 1.58 µM [inhibitor, full curve] | 
Cc1ccc(C)n1C1C(=O)N(Cc2ccc(C(C)C)cc2)c2ccccc21 (stereo not given) | inconclusive: 39.8 µM [inhibitor, partial curve] | 
Cc1ccc(Oc2nc3c(c(=O)n(Cc4ccccc4F)c(=O)n3C)n2C)cc1 | inconclusive: 112 µM [inhibitor, single point] | 

Another view of 3 compounds above:
SMILES,Potency,"activity change, negative = inhibition"
COc1ccc2c(/C=C/c3cc[n+](C)cc3)c[nH]c2c1,"inconclusive: 3.55 µM [inhibitor, partial curve, poor fit]",
CCN1CCN(Cc2c(O)ccc3c(=O)c(Oc4ccccc4C(C)C)c(C(F)(F)F)oc23)CC1,"inconclusive: 1.12 µM [inhibitor, full curve, poor fit]",
O=C(NCCN1CCOCC1)c1sc2cc(Cl)ccc2c1Cl,,inactive: -21.8%

(further entries)

SMILES | Potency | activity change, negative = inhibition
O=C(Nc1ccccc1)Nc1cccc(NC(=O)Nc2ccccc2)c1F |  | inactive: 0%
Cn1cccc1/C=N/n1c(-c2ccccc2)n[nH]c1=S | inconclusive: 22.4 µM [inhibitor, partial curve, poor fit] | 
Cn1cnc(C(=O)NCC(=O)N2CCCCCNC(=O)CC2c2ccccc2)c1 (stereo not given) |  | inactive: 39.5%
CCN1CCN(Cc2cc(=O)oc3cc(C)c(Cl)cc23)CC1 | inconclusive: 25.1 µM [inhibitor, partial curve] | 
O=C(NCc1ccccc1)NC(NC(=O)c1ccccc1)(C(F)(F)F)C(F)(F)F |  | inconclusive: -33.2% [inhibitor]
CC[C@@H](C)C(NC(=O)OC(C)(C)C)c1cn([C@@H](Cc2cc3ccccc3[nH]2)C(=O)N2CCN(C(=O)OC(C)(C)C)CC2)nn1 (stereo not given in full) | inconclusive: 5.01 µM [inhibitor, full curve] | 
Cc1ccc(NC(=O)Cn2cnc3c2c(=O)n(C)c(=O)n3C)cc1C | inconclusive: 50.1 µM [inhibitor, partial curve, poor fit] | 
CCOc1ccc(NC(=O)c2ccc3c(=O)n(-c4ccc(OC)cc4OC)c(=S)[nH]c3c2)cc1 | inconclusive: 44.7 µM [inhibitor, partial curve, poor fit] | 
Cc1ccc(Cn2cccc(NC(=O)CCC3CCCC3)c2=O)cc1 | inconclusive: 112 µM [inhibitor, single point] | 
S=C(Nc1ccc(Cl)cc1)Nc1ccc2cn[nH]c2c1 | inconclusive: 44.7 µM [inhibitor, partial curve, poor fit] | 
Cc1nn2c(c1-c1ccnn1C(C)C)N(CC1CCOCC1)CCC2 | active: 12.6 µM | 
CCC(C)n1c(=N)c(C(=O)NC2CCCCC2)cc2c(=O)n3ccccc3nc21 (stereo not given) | inconclusive: 100 µM [inhibitor, partial curve, poor fit] | 
CC(=O)Nc1ccc2nc(NC(=O)CS(=O)(=O)c3ccc(C)cc3)sc2c1 | inconclusive: 0.199 µM [inhibitor, full curve, poor fit] | 
Cc1ccc(F)c(S(=O)(=O)NC(=O)C2(C)CCN2C(=O)CC2CCCCC2)c1 (stereo not given) | inconclusive: 0.224 µM [inhibitor, full curve, poor fit] | 
CCOC(=O)c1c(NC(=O)CSc2nc3ccc(C)cc3[nH]2)sc2c1CC(C)(C)NC2(C)C | inconclusive: 8.91 µM [inhibitor, partial curve, poor fit] | 
CN1CC(c2ccccc2)CC2(CCN(C(=O)CCS(C)(=O)=O)CC2)C1 (stereo not given) |  | inactive: 62.5%
COc1ccc(CN2CCCC(CO)(Cc3ccc(F)cc3F)C2)cc1 (stereo not given) |  | inactive: 8.37%
Cc1ccc(/C(O)=C2\C(=O)C(=O)N(c3cc(C)on3)C2c2cccc(Br)c2)cc1 (stereo not given) | inconclusive: 2.51 µM [inhibitor, full curve, poor fit] | 
N#C/C(=C\c1cccn1-c1ccccc1)c1ccccc1 | inconclusive: 44.7 µM [inhibitor, partial curve, poor fit] | 
CCc1cc(NCC(O)CN2CCCCC2)ncn1 (stereo not given) |  | inactive: 3.87%
CCn1cc(C(=O)c2cc(F)ccc2O)cc1-c1nc2ccccc2c(=O)[nH]1 |  | inactive: 2.77%
Cc1cc(C)c2c(=O)cc(C(=O)Nc3ccc(S(N)(=O)=O)cc3)oc2c1 | inconclusive: 70.8 µM [inhibitor, partial curve, poor fit] | 

SMILES | Potency | activity change, negative = inhibition
O=C(c1ccccc1F)N1CCC2(CC1)C(=NC1CCCCC1)NC(=O)N2c1cccnc1 | inactive | 
COc1ccc(CNc2cc3c(cn2)CN(C)CCN3C)cc1OC | inconclusive: 63.1 µM [inhibitor, full curve, poor fit] | 
CCN(Cc1ccccc1)C(c1cc2cc(C)ccc2[nH]c1=O)c1nnnn1CCOC (stereo not given) | inconclusive: 35.5 µM [inhibitor, partial curve, poor fit] | 
CCCN1C/C(=C/c2ccc3c(c2)OCO3)C(=O)/C(=C/c2ccc3c(c2)OCO3)C1 | inconclusive: 79.4 µM [inhibitor, partial curve, poor fit] | 
COc1ccccc1CNC(=S)Nc1cc(C)ccc1C | inconclusive: 44.7 µM [inhibitor, partial curve, poor fit] | 
O=C(Oc1cccc2cccnc12)c1cccc([N+](=O)[O-])c1 | inconclusive: 39.8 µM [inhibitor, partial curve, poor fit] | 
CCc1[nH]c(=S)c(C#N)c2c1CCCC2 | inconclusive: 39.8 µM [inhibitor, partial curve, poor fit] | 
CN1CCN(Cc2ccc(-c3ccc(C(C)(C)C#N)cc3)nc2)CC1 | active: 20 µM | 
COc1ccc(OC(=O)c2ccc(Cl)cc2)c(C(C)=O)c1 | inconclusive: 39.8 µM [inhibitor, partial curve, poor fit] | 
Cc1nc2ccccc2nc1OCC(=O)NCc1ccc2c(c1)OCO2 | inconclusive: 39.8 µM [inhibitor, partial curve, poor fit] | 
CCNc1c(N)c(=O)oc2ccccc12 | inconclusive: 12.6 µM [inhibitor, partial curve, poor fit] | 
O=C(c1cccc(F)c1)N1CCCC(c2nc3ccccc3o2)C1 (stereo not given) |  | inactive: 18.5%
C#CCN(C[C@H]1[C@H](OC(=O)NCc2ccccc2)[C@H](OC(=O)NCc2ccccc2)C[C@H]2C(=O)N(c3ccccc3)C(=O)[C@@H]12)S(=O)(=O)c1ccc(C)cc1 | inconclusive: 50.1 µM [inhibitor, partial curve, poor fit] | 
CN(C)S(=O)(=O)c1cccc(NC(=O)CSc2nnnn2-c2ccccc2)c1 |  | inactive: -11.8%
COCc1nc(C2CC(N)C2)cc(N(C)CCN2CCCCC2=O)n1 (stereo not given) | inconclusive: 15.8 µM [inhibitor, full curve] | 
COc1cc(/C=C/c2nc3ccccc3o2)ccc1OC(C)C |  | inactive: 8.58%
CCCn1cc(S(=O)(=O)c2cc(C)ccc2C)c(=O)c2cc(F)c(N3CCN(CC)CC3)cc21 | inconclusive: 126 µM [inhibitor, partial curve, poor fit] | 
COc1ccc(C(=O)Nc2oc3c(C)cccc3c(=O)c2-c2cc(OC)c(OC)c(OC)c2)cc1 | inconclusive: 2.51 µM [inhibitor, full curve] | 
N=c1c(S(=O)(=O)c2ccccc2)cc2c(=O)n3ccccc3nc2n1CC1CCCO1 (stereo not given) | inconclusive: 35.5 µM [inhibitor, partial curve, poor fit] | 
CC(N)=NCCC[C@H](N)C(=O)O | inconclusive: 1.12 µM [inhibitor, full curve, poor fit] | 
CCCn1ccc2sc(C)c(C(=O)NC3CCCC3)c2c1=O |  | inactive: -4.9%
